The values below come from article PMC9596428.

Chains of the proteins cited; added tags and fusions are not shown. Lines headed by an entry give the natural chain unless they say otherwise; changes in a name come on top.
UniProt P11798: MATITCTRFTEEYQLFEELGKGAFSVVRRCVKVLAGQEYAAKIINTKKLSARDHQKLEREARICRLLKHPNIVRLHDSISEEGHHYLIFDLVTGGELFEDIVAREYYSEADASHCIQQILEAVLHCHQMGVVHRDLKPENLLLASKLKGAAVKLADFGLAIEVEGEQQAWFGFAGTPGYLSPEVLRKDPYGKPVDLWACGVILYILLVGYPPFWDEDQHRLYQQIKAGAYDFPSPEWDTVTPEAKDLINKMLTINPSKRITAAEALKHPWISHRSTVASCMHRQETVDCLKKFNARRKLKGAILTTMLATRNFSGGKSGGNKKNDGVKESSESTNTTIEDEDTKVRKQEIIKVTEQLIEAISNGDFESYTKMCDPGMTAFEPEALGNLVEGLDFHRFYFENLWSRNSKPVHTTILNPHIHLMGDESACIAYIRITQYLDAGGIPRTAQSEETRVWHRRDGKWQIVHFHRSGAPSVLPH

These are yes or no findings as the source states them, for the method shown. In cells and extracts the contact can be indirect. Some results given as binding are weak or reduced against the parent protein; the word gives no strength.

In test [1] the target is mVenus-tagged CaMKIIα I205K mutant holoenzyme (mouse) (UniProt P11798). The test is described as follows: FRET or BRET; homo-FRET between mVenus tags on catalytic domains of the holoenzyme (steady-state anisotropy of in vitro binary-FRET), clarified HEK homogenate, room temperature, before and after activation with calcium-calmodulin. For orientation: BRET reads energy transfer from a luciferase to a nearby fluorophore.

The target of test [2] is mVenus-tagged CaMKIIα K42R mutant holoenzyme (mouse) (UniProt P11798). The test is described as above.

Regarding “mVenus-tagged CaMKIIα I205K mutant holoenzyme (from UniProt P11798-1 1-478)”, the binding entry in test [1] is reported as “binds”. For “mVenus-tagged CaMKIIα K42R mutant holoenzyme (from UniProt P11798-1 1-478)”, the binding entry in test [2] was “binds”.
